According to article PMC7665192, “A natriuretic peptide from Arabidopsis thaliana (AtPNP-A) can modulate catalase 2 activity” (Scientific Reports, 2020):
No constants are given. Whether binding was seen depends on the method and setting. Binding calls can cover weak binding; strength is not graded here. Where a sequence is shown, tags or fusion partners need not be part of it. Each block holds one molecule with its values, some of them ahead of it.

By UniProt entry, the sequences of proteins in these tests, tags left out. Where a name states a change or a piece, a line headed by the entry shows the natural chain unless it says otherwise.
UniProt Q9ZV52: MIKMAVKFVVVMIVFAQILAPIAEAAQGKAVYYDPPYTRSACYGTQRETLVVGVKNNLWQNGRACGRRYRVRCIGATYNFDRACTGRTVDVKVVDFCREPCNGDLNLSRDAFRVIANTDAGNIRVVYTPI

Tests used:
[1] = biological target: T1, recombinant catalase 2 (rCAT2), N-terminally 6xHis-tagged (A. thaliana) (UniProt P25819); experiment: SPR; Biacore T100, 20 °C, Series S CM5 or NTA sensor chips; rAtPNP-A and rCAT2 in both ligand-analyte configurations; both purified
T1 sequence: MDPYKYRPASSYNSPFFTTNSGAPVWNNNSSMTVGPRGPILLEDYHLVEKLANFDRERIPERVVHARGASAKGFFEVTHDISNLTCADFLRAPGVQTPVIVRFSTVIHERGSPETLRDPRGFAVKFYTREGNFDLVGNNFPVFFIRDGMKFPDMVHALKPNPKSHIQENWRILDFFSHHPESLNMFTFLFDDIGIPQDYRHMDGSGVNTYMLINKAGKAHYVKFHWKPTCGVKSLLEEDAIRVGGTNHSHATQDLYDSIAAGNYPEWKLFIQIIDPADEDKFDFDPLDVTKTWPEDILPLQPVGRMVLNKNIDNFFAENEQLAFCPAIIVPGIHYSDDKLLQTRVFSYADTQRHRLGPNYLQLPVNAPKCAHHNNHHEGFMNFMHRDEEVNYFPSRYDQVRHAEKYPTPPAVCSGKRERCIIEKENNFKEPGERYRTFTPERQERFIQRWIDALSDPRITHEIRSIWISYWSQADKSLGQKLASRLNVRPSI

[2] = biological target: T2, recombinant catalase 2 (CAT2), N-terminally 6xHis-tagged (Arabidopsis thaliana) (UniProt P25819); experiment: SPR; purified rCAT2 immobilised by amine coupling on a CM5 chip, reference surface blank activated; purified rAtPNP-A as analyte; 20 °C; both purified
T2 sequence: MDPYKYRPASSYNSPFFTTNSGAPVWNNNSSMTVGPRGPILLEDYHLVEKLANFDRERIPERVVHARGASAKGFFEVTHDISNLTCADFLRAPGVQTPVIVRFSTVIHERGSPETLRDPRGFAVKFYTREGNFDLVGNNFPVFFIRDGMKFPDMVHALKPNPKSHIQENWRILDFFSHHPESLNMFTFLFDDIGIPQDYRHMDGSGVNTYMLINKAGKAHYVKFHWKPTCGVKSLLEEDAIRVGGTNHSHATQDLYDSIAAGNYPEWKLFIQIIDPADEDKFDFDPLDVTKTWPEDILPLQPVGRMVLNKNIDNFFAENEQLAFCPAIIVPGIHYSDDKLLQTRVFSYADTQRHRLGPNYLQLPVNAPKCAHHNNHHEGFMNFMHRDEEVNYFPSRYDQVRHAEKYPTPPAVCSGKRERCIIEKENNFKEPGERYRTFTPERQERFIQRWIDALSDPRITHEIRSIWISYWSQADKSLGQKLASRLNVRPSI

[3] = biological target: recombinant AtPNP-A protein, N-terminally 6xHis-tagged (Arabidopsis thaliana) (UniProt Q9ZV52); experiment: SPR; inverted configuration: purified rAtPNP-A immobilised by amine coupling on a CM5 chip; purified rCAT2 as analyte; 20 °C; both purified

binding [1]: binds
Molecule: recombinant AtPNP-A (rAtPNP-A), N-terminally 6xHis-tagged (from UniProt Q9ZV52)

binding [2]: binds
Molecule: recombinant AtPNP-A protein, N-terminally 6xHis-tagged (from UniProt Q9ZV52)

binding [3]: binds
B1: recombinant catalase 2 (CAT2), N-terminally 6xHis-tagged (enzyme, UniProt P25819 1-492)
chain: MDPYKYRPASSYNSPFFTTNSGAPVWNNNSSMTVGPRGPILLEDYHLVEKLANFDRERIPERVVHARGASAKGFFEVTHDISNLTCADFLRAPGVQTPVIVRFSTVIHERGSPETLRDPRGFAVKFYTREGNFDLVGNNFPVFFIRDGMKFPDMVHALKPNPKSHIQENWRILDFFSHHPESLNMFTFLFDDIGIPQDYRHMDGSGVNTYMLINKAGKAHYVKFHWKPTCGVKSLLEEDAIRVGGTNHSHATQDLYDSIAAGNYPEWKLFIQIIDPADEDKFDFDPLDVTKTWPEDILPLQPVGRMVLNKNIDNFFAENEQLAFCPAIIVPGIHYSDDKLLQTRVFSYADTQRHRLGPNYLQLPVNAPKCAHHNNHHEGFMNFMHRDEEVNYFPSRYDQVRHAEKYPTPPAVCSGKRERCIIEKENNFKEPGERYRTFTPERQERFIQRWIDALSDPRITHEIRSIWISYWSQADKSLGQKLASRLNVRPSI
